This note sets out measurements from the supplement of paper PMC10735217.

In this experiment the test system is HEK293A TEAD-LUC reporter. Nature of the experiment: TEAD-luciferase reporter activity (YAP activation), robust Z score vs plate; higher = stronger YAP/TEAD activation. As to conditions: 24 h. Background: In a reporter assay the amount or activity of a reporter protein is the signal.

Each structure is given as a SMILES string. Some of the results follow. Repeats in this data set agree poorly, so a single value says little.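 Human kidney-derived cells stably carry a construct in which eight TEAD-binding elements drive luciferase, measured by luminescence in a drug-repurposing library screen. A hit is any compound whose signal exceeds the plate mean by more than five robust Z scores.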

In the case of `COc1cc2c(cc1OC)C(C)N(S(=O)(=O)c1ccc(C)cc1)CC2` (stereo unspecified), the TEAD-luciferase reporter activity reads like this: (compound concentration: 200 nM) inactive: -1.75; (compound concentration: 2 uM) inactive: -0.641; (compound concentration: 10 uM) inactive: 2.73.
The matching figures for `COc1cncnc1N1CCN(CCCc2c[nH]c3ccc(F)cc23)CC1`: inactive: 3.68, inactive: 0.201 and inactive: -0.494.
For the compound `C#CCC/C(O)=C(\C#N)C(=O)Nc1ccc(C(F)(F)F)cc1`, the TEAD-luciferase reporter activity is, setting by setting: (compound concentration: 200 nM) inactive: -0.111; (compound concentration: 2 uM) inactive: 0.964; (compound concentration: 10 uM) inactive: -0.184.
For `Cc1nnc(C(C)C)n1C1C[C@H]2CC[C@@H](C1)N2CC[C@H](NC(=O)C1CCC(F)(F)CC1)c1ccccc1` (stereo partly specified) [maraviroc], in that order: inactive: -0.388, inactive: -1.22 and inactive: 0.674.
As to `Cc1cc(Nc2nc(CC3(C(=O)O)CCN(C(=O)c4cccc(Cl)c4Cl)CC3)ccc2F)n[nH]1`, the TEAD-luciferase reporter activity is, setting by setting: (compound concentration: 200 nM) inactive: 0.872; (compound concentration: 2 uM) inactive: -1.63; (compound concentration: 10 uM) inactive: 1.14.
For the compound `CCC(=O)N1Cc2ccccc2CC2(CCCCN2CC2CCOCC2)C1` (stereo unspecified), the TEAD-luciferase reporter activity by setting is: (compound concentration: 200 nM) inactive: -2.91; (compound concentration: 10 uM) inactive: 4.54.
Turning to `COc1cc2c(Oc3ccc4[nH]c(C)cc4c3F)ncnc2cc1OCCCN1CCCC1` [cediranib], the TEAD-luciferase reporter activity runs as follows: (compound concentration: 200 nM) inactive: -0.982; (compound concentration: 2 uM) inactive: -3.23; (compound concentration: 10 uM) inactive: -1.92.
For `CS(=O)(=O)NNC(=O)c1ccc[n+](CC(=O)c2cccs2)c1`, in that order: inactive: -0.956, inactive: -0.351 and inactive: 1.21.
The matching figures for `CC(=O)OCCCCc1cc2cccnc2n(-c2ccccc2)c1=O`: inactive: -1.63, inactive: -0.354 and inactive: 0.455.
As to `O=P(O)(O)OCC(O)CO` (stereo unspecified), the TEAD-luciferase reporter activity is, setting by setting: (compound concentration: 200 nM) inactive: -1.87; (compound concentration: 2 uM) inactive: -1.61; (compound concentration: 10 uM) inactive: -0.921.
Consider `C=C(CC)CN1CCCC12Cc1ccccc1CNC2=O` (stereo unspecified), for which, where the note is “compound concentration: 200 nM”, the TEAD-luciferase reporter activity is inactive: -0.8.
With `CCN(CC)C(=O)N1CCN(C)CC1`, the TEAD-luciferase reporter activity (compound concentration: 200 nM) is inactive: 0.977 and the TEAD-luciferase reporter activity (compound concentration: 10 uM) was inactive: -1.62.
As for `CCN(CC)C(=O)N1CCN(C)CC1` [Diethylcarbamazine], the TEAD-luciferase reporter activity (compound concentration: 2 uM) was inactive: -0.388.
In the case of `CCCCc1nc(CCc2ccccc2)[nH]c(=O)c1Cc1ccc(-c2ccccc2-c2nnn[nH]2)cc1`, the TEAD-luciferase reporter activity was inactive: -0.554 (compound concentration: 200 nM), inactive: -1.02 (compound concentration: 2 uM) and inactive: -0.661 (compound concentration: 10 uM).
For `Fc1ccc(NC(=S)Nc2cc(Cl)cc(Cl)c2)cc1`, in that order: inactive: 0.458, inactive: -0.451 and inactive: -0.117.
As for `CN1[C@@H](CC(=O)c2ccccc2)CCC[C@H]1C[C@H](O)c1ccccc1`, the TEAD-luciferase reporter activity is inactive: -1.09 (compound concentration: 200 nM) and inactive: 1.61 (compound concentration: 10 uM).
Regarding `CN1[C@@H](CC(=O)c2ccccc2)CCC[C@H]1C[C@H](O)c1ccccc1` [lobeline], the TEAD-luciferase reporter activity (compound concentration: 2 uM) was inactive: -0.63.
Regarding `CC(C)(CC1Cc2ccccc2C1)NC[C@@H](O)COc1ccc(CCC(=O)O)cc1C#N`, the TEAD-luciferase reporter activity was inactive: 2.16 (compound concentration: 200 nM), inactive: -1.23 (compound concentration: 2 uM) and inactive: 1.48 (compound concentration: 10 uM).
For the compound `CCCCCCCCNC1=[O]->[V]2(=[O])(<-[O]=C(NCCCCCCCC)C(N)C[S]2)[S]CC1N` (stereo unspecified), the TEAD-luciferase reporter activity was inactive: -0.317 (compound concentration: 200 nM), inactive: 0.0814 (compound concentration: 2 uM) and inactive: 1.2 (compound concentration: 10 uM).
Turning to `CS(=O)(=O)N(c1cc(F)cc(F)c1)C1CN(C(c2ccc(Cl)cc2)c2ccc(Cl)cc2)C1` [Drinabant], the TEAD-luciferase reporter activity (compound concentration: 200 nM) is inactive: -1.06, the TEAD-luciferase reporter activity (compound concentration: 2 uM) is inactive: 0.182 and the TEAD-luciferase reporter activity (compound concentration: 10 uM) was inactive: 0.332.
For `Nc1nc(N)c2cc(S(=O)(=O)c3ccc4ccccc4c3)ccc2n1`, in that order: active: 9.96, inactive: -1.17 and inactive: -1.27.
The matching figures for `O=C(N/N=C/c1ccccc1O)c1ccncc1`: inactive: -1.56, inactive: 1.74 and inactive: -1.55.
The matching figures for `COc1cccc2c1N(C(=O)c1ccc(OC(C)C)nc1)CCC2`: inactive: 2.82, inactive: -1.13 and inactive: -0.94.
Consider `COc1cc2nc(-c3ccc(N4CCN(C)CC4)cc3)nc(NCCN3CCOCC3)c2cc1OC`, for which the TEAD-luciferase reporter activity by setting is: (compound concentration: 200 nM) inactive: -0.864; (compound concentration: 2 uM) inactive: 4.11; (compound concentration: 10 uM) active: 7.89.
The matching figures for `C=C1/C(=C\C=C2/CCC[C@]3(C)[C@@H]([C@H](C)OCCC(C)(C)O)CC[C@@H]23)C[C@@H](O)C[C@@H]1O` [maxacalcitol]: inactive: 1.23, inactive: -2.43 and inactive: -0.838.
